Results published in patent US7132012B2, “Phthalocyanine compound, ink, ink jet recording method and image forming method” (Fuji Photo Film Co., Ltd., priority 2004, dated 2006).

Assay: Color toner OHP image: transparency (spectral transmittance at 450 nm)

Molecule	Transparency
CNc1ccc(O)c2c1C(=O)c1c(O)ccc(NC)c1C2=O [Comparative dye 5]	Δ (70 to less than 80%, Δ)
Cc1ccc(Nc2ccc(Nc3ccc(C)cc3)c3c2C(=O)c2c(Nc4ccc(C)cc4)ccc(Nc4ccc(C)cc4)c2C3=O)cc1 [Comparative dye 6]	Δ (70 to less than 80%, Δ)
C.I. Solvent Blue 38	x (less than 70%, x)
C.I. Solvent Blue 70	x (less than 70%, x)
